These results are taken from patent US5756355A, “Lipid membrane sensors” (Ecole Polytechnique Federale de Lausanne, priority 1992, dated 1998).

The nature of series [1]: Electrical properties of mixed bilayers with mixed thiolipid/phospholipid first layer on gold electrode (Example 6). Format: physicochemical.
Series [2] in a line: Capacitance and resistance of pure thiolipid layers and thiolipid/phospholipid bilayers on gold electrode (Example 5). Format: physicochemical.

In the case of `CCCCCCCCCCCCCC(=O)OC[C@H](COP(=O)([O-])OCC[N+](C)(C)C)OC(=O)CCCCCCCCCCCCC` [DMPC], the “capacitance of final stable mixed bilayers on the gold electrodes” value in series [1] is reported as 0.8 (±10%) μF/cm^2.
For the molecule `CCCCCCCCCCCCCCCC(=O)OC[C@H](COP(=O)(O)OCCOCCOCCSSCCOCCOCCOP(=O)(O)OC[C@@H](COC(=O)CCCCCCCCCCCCCCC)OC(=O)CCCCCCCCCCCCCCC)OC(=O)CCCCCCCCCCCCCCC` [Ex. 1, bis[8-(1,2-dipalmitoyl-sn-glycero-3-phosphoryl) 3,6-dioxaoctyl]disulfide monohydrate], the “Capacitance of bilayer membranes of pure thiolipid/phospholipid” value in series [2] (second layer phospholipid DMPC) was 0.80 ± 0.01 μF/cm^2; in series [2] (second layer phospholipid DPPC) it was 0.72 ± 0.01 μF/cm^2; in series [2] (second layer phospholipid POPC), 0.78 ± 0.03 μF/cm^2.
On to `CCCCCCCCCCCCCCCC(=O)OC[C@H](COP(=O)(O)OCCOCCSSCCOCCOP(=O)(O)OC[C@@H](COC(=O)CCCCCCCCCCCCCCC)OC(=O)CCCCCCCCCCCCCCC)OC(=O)CCCCCCCCCCCCCCC` [Ex. 3, Bis[5-(1,2-dipalmitoyl-sn-glycero-3-phosphoryl) -3-oxapentyl]disulfide monohydrate], for which the entries for the “Capacitance of bilayer membranes of pure thiolipid/phospholipid” value in series [2] (second layer phospholipid DMPC), in series [2] (second layer phospholipid DPPC) and in series [2] (second layer phospholipid POPC) were 0.80 ± 0.02 μF/cm^2, 0.72 ± 0.05 μF/cm^2 and 0.77 ± 0.02 μF/cm^2, respectively.
`CCCCCCCC/C=C\CCCCCCCC(=O)O[C@H](COC(=O)CCCCCCCCCCCCCCC)COP(=O)([O-])OCC[N+](C)(C)C` [POPC, 1-palmitoyl-2-oleoyl-sn-glycero-3-phosphocholine]: the “capacitance of final stable mixed bilayers on the gold electrodes” value in series [1] is reported as 0.8 (±10%) μF/cm^2.
